From PMC3859071

Tests used:
alpha-thrombin (human) = experiment: binding assay; details: EMSA: TBSE (0.05 mM EDTA, 10 mM Tris-HCl, 100 mM NaCl, pH 7; Vap7 folded with +100 mM KCl), 25 C, 30-60 min, 0.1 uM aptamer; commercial protein; folded or branched DNA
VEGF165 (human) [1] = experiment: EMSA supershift; details: 5 uM VEGF165, no ternary complex evident (binary complex forms); 5'-amino on strand 1; EMSA: TBSE (0.05 mM EDTA, 10 mM Tris-HCl, 100 mM NaCl, pH 7; Vap7 folded with +100 mM KCl), 25 C, 30-60 min, 0.1 uM aptamer; commercial protein; label: 5'-FAM on strand 2
Alexa555-VEGF165 (human) [2] = experiment: aptamer microarray; details: less defined signal than with T12 spacer; 5'-amino; Microarray: TBSE, 25 C, 30 min, PBS washes; commercial protein; protein details: Alexa Fluor 555; folded or branched DNA
VEGF165 (human) [3] = experiment: binding assay; details: EMSA: TBSE (0.05 mM EDTA, 10 mM Tris-HCl, 100 mM NaCl, pH 7; Vap7 folded with +100 mM KCl), 25 C, 30-60 min, 0.1 uM aptamer; commercial protein; folded or branched DNA
Alexa555-VEGF165 (human) [4] = experiment: sandwich aptamer microarray; details: detected with VEa5-Cy5; 5'-amino; Microarray: TBSE, 25 C, 30 min, PBS washes; commercial protein; protein details: Alexa Fluor 555; single-stranded DNA

AGTCCGTGGTAGGGCAGGTTGGGGTGACT [TBA2]
Kd (alpha-thrombin (human)): 0.5 nM

ATACCAGTCTATTCAATTGCACTCTGTGGGGGTGGACGGGCCGGGTAGA / ATACCAGTCTATTCAATTGGGCCCGTCCGTATGGTGGGTGTGCTGGCCAGATAGTATGTGCAATCA [Vap7-NH2 + VEa5-FAM]
binding result (VEGF165 (human) [1]): no binding

ATACCAGTCTATTCAATTGCACTCTGTGGGGGTGGACGGGCCGGGTAGA [Vap7-NH2]
binding result (Alexa555-VEGF165 (human) [2]): binds more weakly

ATACCAGTCTATTCAATTGCACTCTGTGGGGGTGGACGGGCCGGGTAGA [Vap7]
Kd (VEGF165 (human) [3]): 20 nM

ATACCAGTCTATTCAATTGGGCCCGTCCGTATGGTGGGTGTGCTGGCCAGATAGTATGTGCAATCA [VEa5]
Kd (VEGF165 (human) [3]): 130 nM

GGTTGGTGTGGTTGG [TBA1]
Kd (alpha-thrombin (human)): 26 nM

TCACGCTTATTTAAGAAGCTGTTTGGTGGAGG [Random DNA-NH2]
binding result (Alexa555-VEGF165 (human) [4]): no binding

For some of these results: No signal at the amounts used counts as a negative. For some of these results: At least one verdict was read from the data and is not stated in words by the source. For some of these results: The exact form of at least one protein or probe is not confirmed. For some of these results: Weaker means in comparison with the reference protein, sequence or condition of that experiment.
